Patent US20230355763A1, “NANOPARTICLE VACCINES AND USES THEREOF FOR PROPHYLAXIS AND TREATMENT OF ATHEROSCLEROSIS USING PEPTIDE 210 AS AN ANTIGEN” (CEDARS-SINAI MEDICAL CENTER, priority 2022, published 2023)
These are yes or no findings as the source states them, for the method shown. Binding calls can cover weak binding; strength is not graded here.

Legend:
HLA-A*02:01 (human) [1] = experiment: REVEAL binding assay (ProImmune), screen of P210 epitopes on HLA-A*02:01
HLA-A*02:01 (human) [2] = experiment: REVEAL binding assay (ProImmune), 9-mer peptide on HLA-A*02:01

binding (HLA-A*02:01 (human) [1]): binds
binding (HLA-A*02:01 (human) [2]): binds
Binder: KTTKQSFDL [P210 9-mer peptide 1, … (SEQ ID NO:2)]
